Results taken from US20140274906A1 (NONO, published 2014).
No constants are given. Whether binding was seen depends on the method and setting. Some binding calls cover weakened binding; strength is not graded here. Sequences can lack the tags named with a protein.

T1: biotinylated Src40-49 peptide (human, also: biotinylated, position not given here)
T1 construct: Labelled probe; also called bio-Src 40-49; Bio-Src40-49
T1 peptide: KPASADGHRG

T2: biotinylated Src 40-58 peptide (human, also: biotinylated, position not given here)
T2 construct: Probe in dot blots (~15 ug/ml) and ELISA (6 uM); also called biotin-Src 40-58; Biotin-Src 40-58
T2 peptide: KPASADGHRGPSAAFVPAA


Molecular target: T1, biotinylated Src40-49 peptide
Experiment: dot blot (FIG. 4A)

binding, binds:
NVKMKWQFEHTK (peptide, not shown: a dimerising Fc or GST) [ND2 310-321 (GST construct)]
MSNNVKMKWQFE (peptide, not shown: a dimerising Fc or GST) [ND2 307-318 (ND2 construct of FIG. 4)]
NVKMKWQFE (peptide, not shown: a dimerising Fc or GST) [ND2 310-318 (ND2 construct of FIG. 4)]

Molecular target: T2, biotinylated Src 40-58 peptide
Experiment: dot blot of GST proteins probed with Biotin-Src 40-58 (FIG. 3B)

binding, binds:
NVKMKWQFEHTK (peptide, not shown: a dimerising Fc or GST) [ND2 310-321 (GST construct)]
NLYFYLRLIYSTSITLLPMSN (peptide, not shown: a dimerising Fc or GST) [ND2 289-309 (GST construct)]
STSITLLPMSNNVKMKWQFE (peptide, not shown: a dimerising Fc or GST) [ND2 299-318 (GST construct)]
ITLLPMSNNVKMKWQFEHTK (peptide, not shown: a dimerising Fc or GST) [ND2 302-321 (GST construct)]
MSNNVKMKWQFEHTK (peptide, not shown: a dimerising Fc or GST) [ND2 307-321 (GST construct)]

Molecular target: T2, biotinylated Src 40-58 peptide
Experiment: ELISA (FIG. 3C); member of FIG. 3A by SEQ ID NO 25

binding, binds:
KWQFEHTK (peptide, not shown: a dimerising Fc or GST) [ND2 314-321 (GST construct)]

Molecular target: T2, biotinylated Src 40-58 peptide
Experiment: ELISA (FIG. 3C)

binding, binds:
NVKMKWQFEHTK (peptide, not shown: a dimerising Fc or GST) [ND2 310-321 (GST construct)]
NLYFYLRLIYSTSITLLPMSN (peptide, not shown: a dimerising Fc or GST) [ND2 289-309 (GST construct)]
STSITLLPMSNNVKMKWQFE (peptide, not shown: a dimerising Fc or GST) [ND2 299-318 (GST construct)]
ITLLPMSNNVKMKWQFEHTK (peptide, not shown: a dimerising Fc or GST) [ND2 302-321 (GST construct)]
MSNNVKMKWQFEHTK (peptide, not shown: a dimerising Fc or GST) [ND2 307-321 (GST construct)]
YFYLRLIYSTSIT (peptide, not shown: a dimerising Fc or GST) [ND2 291-303 (GST construct)]
KWQFEHTK (peptide, not shown: a dimerising Fc or GST) [ND2 314-321 (GST construct)]

Molecular target: T2, biotinylated Src 40-58 peptide
Experiment: dot blot (FIG. 4A); the legend prints Src 40-58, the text Src 40-49

binding, binds:
NVKMKWQFEHTK (peptide, not shown: a dimerising Fc or GST) [ND2 310-321 (GST construct)]
MSNNVKMKWQFE (peptide, not shown: a dimerising Fc or GST) [ND2 307-318 (ND2 construct of FIG. 4)]
NVKMKWQFE (peptide, not shown: a dimerising Fc or GST) [ND2 310-318 (ND2 construct of FIG. 4)]

Molecular target: T2, biotinylated Src 40-58 peptide
Experiment: ELISA (FIG. 3C); member of FIG. 3A by SEQ ID NO 21

binding, binds:
ITLLPMSNNVKMKWQFEHTK (peptide, not shown: a dimerising Fc or GST) [ND2 302-321 (GST construct)]

Molecular target: T2, biotinylated Src 40-58 peptide
Experiment: ELISA (FIG. 3C); member of FIG. 3A by SEQ ID NO 18

binding, binds:
YFYLRLIYSTSIT (peptide, not shown: a dimerising Fc or GST) [ND2 291-303 (GST construct)]

Molecular target: T1, biotinylated Src40-49 peptide
Experiment: ELISA (FIG. 4B)

binding, binds:
NVKMKWQFEHTK (peptide, not shown: a dimerising Fc or GST) [ND2 310-321 (GST construct)]
MSNNVKMKWQFE (peptide, not shown: a dimerising Fc or GST) [ND2 307-318 (ND2 construct of FIG. 4)]
NVKMKWQFE (peptide, not shown: a dimerising Fc or GST) [ND2 310-318 (ND2 construct of FIG. 4)]
